No constants are given. Whether binding was seen depends on the method and setting.
B1: (i+8)A (peptide)
peptide: LEWLAEKYFE
modifications: N-terminal acetyl; first and last Glu joined as amides with 1,5-diaminopentane
B2: BP1-04 (peptide)
peptide: CRAGPLQWLCE
modifications: disulfide between the two Cys

Experiments:
human IGFBP-1 [1] = molecular target: T1, human IGFBP-1 (human, UniProt P08833 26-259); assay: condition: >200-fold potency reduction against BP1-01; BIAcore inhibition assay
T1 sequence (looked up): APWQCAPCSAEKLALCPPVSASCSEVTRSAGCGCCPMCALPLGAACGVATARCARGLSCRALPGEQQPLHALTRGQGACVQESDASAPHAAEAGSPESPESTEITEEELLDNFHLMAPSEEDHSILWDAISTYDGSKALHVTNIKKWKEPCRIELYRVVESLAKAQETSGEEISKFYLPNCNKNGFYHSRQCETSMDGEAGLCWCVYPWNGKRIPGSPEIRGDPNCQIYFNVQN

human IGFBP-1 [2] = molecular target: T1, human IGFBP-1; assay: ELISA

Binder	binding (human IGFBP-1 [1])	binding (human IGFBP-1 [2])
B1	no binding	–
B2	–	no binding (tested: >1000-fold the IC50 of BP1-01)
